Among the data in article PMC6763460 are binding values, retold here.

Protein sequences, listed by entry. Tags and fused reporters are not part of them.
UniProt O60603: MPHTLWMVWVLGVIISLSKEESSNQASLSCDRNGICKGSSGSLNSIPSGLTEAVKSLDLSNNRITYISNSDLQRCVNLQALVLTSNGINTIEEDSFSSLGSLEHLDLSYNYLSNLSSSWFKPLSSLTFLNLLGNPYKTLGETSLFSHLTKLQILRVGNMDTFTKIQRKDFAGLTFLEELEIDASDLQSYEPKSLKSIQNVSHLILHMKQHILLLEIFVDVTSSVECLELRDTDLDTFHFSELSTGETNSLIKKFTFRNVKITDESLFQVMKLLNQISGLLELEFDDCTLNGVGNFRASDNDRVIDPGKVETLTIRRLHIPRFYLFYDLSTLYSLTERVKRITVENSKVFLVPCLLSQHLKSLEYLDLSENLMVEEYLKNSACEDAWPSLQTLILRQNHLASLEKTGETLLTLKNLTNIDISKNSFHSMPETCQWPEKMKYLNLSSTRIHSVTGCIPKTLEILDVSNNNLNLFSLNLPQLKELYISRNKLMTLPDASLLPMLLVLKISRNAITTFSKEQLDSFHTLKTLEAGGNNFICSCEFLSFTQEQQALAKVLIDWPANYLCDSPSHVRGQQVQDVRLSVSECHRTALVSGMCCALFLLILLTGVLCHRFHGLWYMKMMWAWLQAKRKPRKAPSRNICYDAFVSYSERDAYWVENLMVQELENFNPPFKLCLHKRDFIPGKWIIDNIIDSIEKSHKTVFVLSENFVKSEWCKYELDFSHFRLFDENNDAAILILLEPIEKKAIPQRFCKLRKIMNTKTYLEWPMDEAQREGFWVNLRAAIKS
UniProt P46937: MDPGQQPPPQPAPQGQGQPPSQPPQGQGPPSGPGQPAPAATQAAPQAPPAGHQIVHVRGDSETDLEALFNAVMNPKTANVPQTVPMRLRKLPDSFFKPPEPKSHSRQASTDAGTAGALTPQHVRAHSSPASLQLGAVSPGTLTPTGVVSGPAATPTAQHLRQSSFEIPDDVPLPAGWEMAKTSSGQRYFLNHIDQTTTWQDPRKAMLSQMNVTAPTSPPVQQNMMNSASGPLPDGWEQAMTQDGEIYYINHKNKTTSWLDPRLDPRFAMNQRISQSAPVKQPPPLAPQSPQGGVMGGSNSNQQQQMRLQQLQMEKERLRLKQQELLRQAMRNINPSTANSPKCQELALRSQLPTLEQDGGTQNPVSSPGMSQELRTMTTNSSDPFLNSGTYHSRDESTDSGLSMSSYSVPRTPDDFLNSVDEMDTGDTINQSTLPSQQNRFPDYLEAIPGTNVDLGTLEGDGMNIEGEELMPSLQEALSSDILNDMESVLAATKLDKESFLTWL
UniProt P09429: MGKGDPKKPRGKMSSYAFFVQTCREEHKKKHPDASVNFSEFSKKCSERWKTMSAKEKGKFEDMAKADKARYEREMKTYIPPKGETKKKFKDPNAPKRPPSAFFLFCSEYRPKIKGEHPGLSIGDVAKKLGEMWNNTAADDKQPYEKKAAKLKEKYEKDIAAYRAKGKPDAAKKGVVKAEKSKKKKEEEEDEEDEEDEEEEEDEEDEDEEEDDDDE
UniProt Q16665: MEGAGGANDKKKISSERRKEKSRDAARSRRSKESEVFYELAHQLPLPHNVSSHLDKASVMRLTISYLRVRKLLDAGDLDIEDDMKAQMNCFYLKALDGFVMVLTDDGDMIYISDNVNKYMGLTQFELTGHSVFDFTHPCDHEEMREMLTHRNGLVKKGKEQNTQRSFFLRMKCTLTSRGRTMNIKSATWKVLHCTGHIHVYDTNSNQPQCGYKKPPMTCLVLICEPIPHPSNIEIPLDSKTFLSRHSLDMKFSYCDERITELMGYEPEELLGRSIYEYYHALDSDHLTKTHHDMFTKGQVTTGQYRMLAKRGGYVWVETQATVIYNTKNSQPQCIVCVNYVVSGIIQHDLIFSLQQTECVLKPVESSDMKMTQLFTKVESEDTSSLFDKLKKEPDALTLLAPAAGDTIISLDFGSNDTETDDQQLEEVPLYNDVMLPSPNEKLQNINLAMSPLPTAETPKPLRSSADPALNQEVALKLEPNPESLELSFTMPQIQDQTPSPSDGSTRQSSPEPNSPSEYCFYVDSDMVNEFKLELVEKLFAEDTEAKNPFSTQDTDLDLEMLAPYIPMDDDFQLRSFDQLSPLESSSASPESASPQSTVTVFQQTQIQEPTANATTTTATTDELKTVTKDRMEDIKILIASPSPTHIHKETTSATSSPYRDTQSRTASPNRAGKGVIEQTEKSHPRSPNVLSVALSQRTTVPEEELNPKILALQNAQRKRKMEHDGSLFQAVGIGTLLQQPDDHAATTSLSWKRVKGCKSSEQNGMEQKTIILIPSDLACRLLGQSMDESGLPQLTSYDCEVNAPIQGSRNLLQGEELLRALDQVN

Results are given in words; binding and its absence hold for the method and conditions named. In cells and extracts the contact can be indirect. Some binding calls cover weakened binding; strength is not graded here.

For test [1], the target named is TLR2 receptor (human (endogenous in CD133- pancreatic cancer cells)) (UniProt O60603). The test can be described thus: co-IP; CD133- cancer cells cultured with 250 ng/ml rhHMGB1, then lysed; lysates immunoprecipitated with 2 ug anti-TLR2 overnight at 4 °C, protein A/G agarose beads, washed three times with lysis buffer; only the binder purified.
Test [2] deals with YAP (human (endogenous in CD133- pancreatic cancer cells)) (UniProt P46937). The test can be described thus: co-IP; lysates of CD133- cancer cells treated with or without rhHMGB1, under normoxia or hypoxia; immunoprecipitated with 2 ug anti-YAP overnight at 4 °C, protein A/G agarose beads, washed three times with lysis buffer.

As for “recombinant human HMGB1 (from UniProt P09429 1-215) (ligand)”, the binding entry in test [1] is on record as “binds”. Take “hypoxia-inducible factor 1α (from UniProt Q16665 1-826)”: in test [2], the binding entry is recorded as “binds”.
